Where two headings read alike, the source gives them in different places. No constants are given. Whether binding was seen depends on the method and setting. In cells and extracts the contact can be indirect. Some binding calls cover weakened binding; strength is not graded here.
Columns and labels:
[1] = biological target: MYCN (human (endogenous in IMR32 and NBLS)) (UniProt P04198); experiment: co-IP
[2] = biological target: MYCN (human (endogenous in IMR32 and NBLS)) (UniProt P04198); experiment: co-IP; remark: listed apart in the source

By UniProt entry, the sequences of proteins in these tests, tags left out.
UniProt P04198: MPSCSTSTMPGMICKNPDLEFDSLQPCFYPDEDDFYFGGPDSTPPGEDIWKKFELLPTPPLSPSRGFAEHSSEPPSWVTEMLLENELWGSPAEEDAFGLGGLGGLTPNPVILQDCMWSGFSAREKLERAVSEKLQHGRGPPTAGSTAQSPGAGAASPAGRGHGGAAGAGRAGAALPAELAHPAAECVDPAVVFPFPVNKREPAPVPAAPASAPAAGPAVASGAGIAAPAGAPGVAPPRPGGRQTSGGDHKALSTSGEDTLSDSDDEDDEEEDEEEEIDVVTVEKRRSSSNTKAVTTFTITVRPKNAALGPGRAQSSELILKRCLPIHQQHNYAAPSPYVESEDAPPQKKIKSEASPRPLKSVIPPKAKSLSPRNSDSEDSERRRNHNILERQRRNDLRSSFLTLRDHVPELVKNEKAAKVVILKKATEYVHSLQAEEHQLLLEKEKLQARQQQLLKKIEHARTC
UniProt P61244: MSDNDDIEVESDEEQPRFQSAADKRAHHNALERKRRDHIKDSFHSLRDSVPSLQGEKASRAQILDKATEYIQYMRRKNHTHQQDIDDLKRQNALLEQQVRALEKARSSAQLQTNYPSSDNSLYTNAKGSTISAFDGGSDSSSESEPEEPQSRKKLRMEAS

MAX (from UniProt P61244 1-160)
binding [1]: binds | binding [2]: binds

B1: TBX2 (protein, UniProt Q13207 1-712)
chain: MREPALAASAMAYHPFHAPRPADFPMSAFLAAAQPSFFPALALPPGALAKPLPDPGLAGAAAAAAAAAAAAEAGLHVSALGPHPPAAHLRSLKSLEPEDEVEDDPKVTLEAKELWDQFHKLGTEMVITKSGRRMFPPFKVRVSGLDKKAKYILLMDIVAADDCRYKFHNSRWMVAGKADPEMPKRMYIHPDSPATGEQWMAKPVAFHKLKLTNNISDKHGFTILNSMHKYQPRFHIVRANDILKLPYSTFRTYVFPETDFIAVTAYQNDKITQLKIDNNPFAKGFRDTGNGRREKRKQLTLPSLRLYEEHCKPERDGAESDASSCDPPPAREPPTSPGAAPSPLRLHRARAEEKSCAADSDPEPERLSEERAGAPLGRSPAPDSASPTRLTEPERARERRSPERGKEPAESGGDGPFGLRSLEKERAEARRKDEGRKEAAEGKEQGLAPLVVQTDSASPLGAGHLPGLAFSSHLHGQQFFGPLGAGQPLFLHPGQFTMGPGAFSAMGMGHLLASVAGGGNGGGGGPGTAAGLDAGGLGPAASAASTAAPFPFHLSQHMLASQGIPMPTFGGLFPYPYTYMAAAAAAASALPATSAAAAAAAAAGSLSRSPFLGSARPRLRFSPYQIPVTIPPSTSLLTTGLASEGSKAAGGNSREPSPLPELALRKVGAPSRGALSPSGSAKEAANELQSIQRLVSGLESQRALSPGRESPK
binding [1]: binds | binding [2]: binds

From paper doi:10.1101/2022.05.18.492511
